Patent US9518166B2, “Film forming auxiliary agent composition for emulsion resin” (ADEKA CORPORATION, priority 2013, dated 2016)

Tests used:
Assay type in all cases: physicochemical
[1] = Test 1: minimum film forming temperature (MFT), resin 1; conditions: 5 mass % in resin 1, 75 μm coating film, observed after 1 h
[2] = Test 1: minimum film forming temperature (MFT), resin 2; conditions: 5 mass % in resin 2, 75 μm coating film, observed after 1 h
[3] = Test 4: water resistance test of coating film; conditions: 5 mass % in resin 1, 75-μm film on glass, warm water 50° C., checked hourly up to 12 hrs; not whitened after 12 hrs = passed

SMILES	Test 1: minimum film forming temperature (MFT) [1] [°C]	Test 1: minimum film forming temperature (MFT) [2] [°C]	Test 4: water resistance, time to whitening of coating film [3]
CCCCOCCO [Comparative Product 10, butyl cellosolve]	29.3	30.3	Passed the test
CN1CCCC1=O [Comparative Product 11, N-methylpyrrolidone]	24.2	26.3	10 h
